{"source": "PubChem BioAssay AID602196 (INSERM, 2012)", "aim": "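Modifiers of cisplatin sensitivity in A549 cells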", "cells": "human A549 lung cancer cells", "reagent": "siRNA pair against human genes", "time to read-out": "48 h transfection before cisplatin; time from cisplatin to read-out not stated", "conditions": "cisplatin at a dose killing half of control-siRNA cells; exact dose and duration not given", "read-out": "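Shift in cisplatin death relative to control siRNA, from -50 (all cells die) to +50 (no cells die); siRNAs harmful on their own scored 0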", "reading the numbers": "two-siRNA summed score (-2 to +2): higher = both siRNAs protect from cisplatin killing; -2 means both sensitise; mean protection from cisplatin (shift in death): higher = protection from cisplatin killing", "rule for the call": "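Each siRNA scores 0 if harmful alone by LDH or WST-1, otherwise +1 if it reduces and -1 if it increases cisplatin killing; a gene is active when both siRNAs agree (sum +2 or -2)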", "calls": "active = both siRNAs shift cisplatin killing the same way; inactive = no consistent shift, or siRNA harmful alone", "note": "Here is an unselected part of about 23,000 deposited reagents. 455 of them (2%) were called active. 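Active includes both protection and sensitisation; some change values fall well beyond the stated -50 to +50 range.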 Further read-outs or replicates are left out here. Not given: the amount of reagent."}
The first 5 entries, ahead of the listing:
{"target gene": "SLC3A1", "two-siRNA summed score (-2 to +2)": 0, "mean protection from cisplatin (shift in death) (%)": -3, "activity call": "inactive"}
{"target gene": "MAF1", "two-siRNA summed score (-2 to +2)": 0, "mean protection from cisplatin (shift in death) (%)": -0.2, "activity call": "inactive"}
{"target gene": "MYH6", "two-siRNA summed score (-2 to +2)": 0, "mean protection from cisplatin (shift in death) (%)": 8.9, "activity call": "inactive"}
{"target gene": "VIRMA", "two-siRNA summed score (-2 to +2)": 1, "mean protection from cisplatin (shift in death) (%)": 16.3, "activity call": "inactive"}
{"target gene": "LSS", "two-siRNA summed score (-2 to +2)": 0, "mean protection from cisplatin (shift in death) (%)": -11.2, "activity call": "inactive"}

The listing, from the start:
{"target gene": "SLC3A1", "two-siRNA summed score (-2 to +2)": 0, "mean protection from cisplatin (shift in death) (%)": -3, "activity call": "inactive"}
{"target gene": "MAF1", "two-siRNA summed score (-2 to +2)": 0, "mean protection from cisplatin (shift in death) (%)": -0.2, "activity call": "inactive"}
{"target gene": "MYH6", "two-siRNA summed score (-2 to +2)": 0, "mean protection from cisplatin (shift in death) (%)": 8.9, "activity call": "inactive"}
{"target gene": "VIRMA", "two-siRNA summed score (-2 to +2)": 1, "mean protection from cisplatin (shift in death) (%)": 16.3, "activity call": "inactive"}
{"target gene": "LSS", "two-siRNA summed score (-2 to +2)": 0, "mean protection from cisplatin (shift in death) (%)": -11.2, "activity call": "inactive"}
{"target gene": "LOC339274", "two-siRNA summed score (-2 to +2)": 0, "mean protection from cisplatin (shift in death) (%)": 14.7, "activity call": "inactive"}
{"target gene": "GPR19", "two-siRNA summed score (-2 to +2)": 0, "mean protection from cisplatin (shift in death) (%)": -1.4, "activity call": "inactive"}
{"target gene": "RAP2A", "two-siRNA summed score (-2 to +2)": 1, "mean protection from cisplatin (shift in death) (%)": 6.7, "activity call": "inactive"}
{"target gene": "POLG", "two-siRNA summed score (-2 to +2)": 0, "mean protection from cisplatin (shift in death) (%)": -13.5, "activity call": "inactive"}
{"target gene": "CARD11", "two-siRNA summed score (-2 to +2)": 0, "mean protection from cisplatin (shift in death) (%)": 3.1, "activity call": "inactive"}
{"target gene": "LOC147468", "two-siRNA summed score (-2 to +2)": 0, "mean protection from cisplatin (shift in death) (%)": -4.2, "activity call": "inactive"}
{"target gene": "FPR3", "two-siRNA summed score (-2 to +2)": 1, "mean protection from cisplatin (shift in death) (%)": 7.4, "activity call": "inactive"}
{"target gene": "SERTM1", "two-siRNA summed score (-2 to +2)": 1, "mean protection from cisplatin (shift in death) (%)": 11.4, "activity call": "inactive"}
{"target gene": "LOC442481", "two-siRNA summed score (-2 to +2)": 0, "mean protection from cisplatin (shift in death) (%)": 2.8, "activity call": "inactive"}
{"target gene": "LOC401287", "two-siRNA summed score (-2 to +2)": 0, "mean protection from cisplatin (shift in death) (%)": 6.6, "activity call": "inactive"}
{"target gene": "OR2C3", "two-siRNA summed score (-2 to +2)": 0, "mean protection from cisplatin (shift in death) (%)": 2, "activity call": "inactive"}
{"target gene": "LOC401295", "two-siRNA summed score (-2 to +2)": 0, "mean protection from cisplatin (shift in death) (%)": 5.6, "activity call": "inactive"}
{"target gene": "RNASE9", "two-siRNA summed score (-2 to +2)": 1, "mean protection from cisplatin (shift in death) (%)": 15.4, "activity call": "inactive"}
{"target gene": "KLHL17", "two-siRNA summed score (-2 to +2)": 1, "mean protection from cisplatin (shift in death) (%)": 12.9, "activity call": "inactive"}
{"target gene": "NTHL1", "two-siRNA summed score (-2 to +2)": 0, "mean protection from cisplatin (shift in death) (%)": -4.4, "activity call": "inactive"}
{"target gene": "ZNF69", "two-siRNA summed score (-2 to +2)": 0, "mean protection from cisplatin (shift in death) (%)": -5.4, "activity call": "inactive"}
{"target gene": "IPO13", "two-siRNA summed score (-2 to +2)": 1, "mean protection from cisplatin (shift in death) (%)": 1.4, "activity call": "inactive"}
{"target gene": "DRC8", "two-siRNA summed score (-2 to +2)": 0, "mean protection from cisplatin (shift in death) (%)": 6.2, "activity call": "inactive"}
{"target gene": "RBMY1F", "two-siRNA summed score (-2 to +2)": 0, "mean protection from cisplatin (shift in death) (%)": 6.1, "activity call": "inactive"}
{"target gene": "ZIM2", "two-siRNA summed score (-2 to +2)": 0, "mean protection from cisplatin (shift in death) (%)": 1.7, "activity call": "inactive"}
{"target gene": "LOC400584", "two-siRNA summed score (-2 to +2)": 0, "mean protection from cisplatin (shift in death) (%)": -0.3, "activity call": "inactive"}
{"target gene": "LOC400121", "two-siRNA summed score (-2 to +2)": 1, "mean protection from cisplatin (shift in death) (%)": 16.6, "activity call": "inactive"}
{"target gene": "WDR76", "two-siRNA summed score (-2 to +2)": 0, "mean protection from cisplatin (shift in death) (%)": 9, "activity call": "inactive"}
{"target gene": "LOC342979", "two-siRNA summed score (-2 to +2)": 1, "mean protection from cisplatin (shift in death) (%)": 10.9, "activity call": "inactive"}
{"target gene": "KCNN2", "two-siRNA summed score (-2 to +2)": 0, "mean protection from cisplatin (shift in death) (%)": 1.5, "activity call": "inactive"}
{"target gene": "MRGPRX6P", "two-siRNA summed score (-2 to +2)": 0, "mean protection from cisplatin (shift in death) (%)": 8.6, "activity call": "inactive"}
{"target gene": "GNPNAT1", "two-siRNA summed score (-2 to +2)": 0, "mean protection from cisplatin (shift in death) (%)": -2.7, "activity call": "inactive"}
{"target gene": "CCN2", "two-siRNA summed score (-2 to +2)": -1, "mean protection from cisplatin (shift in death) (%)": 2.7, "activity call": "inactive"}
{"target gene": "ASZ1", "two-siRNA summed score (-2 to +2)": 1, "mean protection from cisplatin (shift in death) (%)": 3.6, "activity call": "inactive"}
{"target gene": "EPB41L4B", "two-siRNA summed score (-2 to +2)": 0, "mean protection from cisplatin (shift in death) (%)": -4.5, "activity call": "inactive"}
{"target gene": "LOC440344", "two-siRNA summed score (-2 to +2)": -1, "mean protection from cisplatin (shift in death) (%)": -4.2, "activity call": "inactive"}
{"target gene": "ENY2", "two-siRNA summed score (-2 to +2)": -1, "mean protection from cisplatin (shift in death) (%)": -5.5, "activity call": "inactive"}
{"target gene": "LOC441706", "two-siRNA summed score (-2 to +2)": 0, "mean protection from cisplatin (shift in death) (%)": 5.6, "activity call": "inactive"}
{"target gene": "FLJ16518", "two-siRNA summed score (-2 to +2)": 0, "mean protection from cisplatin (shift in death) (%)": -8.3, "activity call": "inactive"}
{"target gene": "ADCY3", "two-siRNA summed score (-2 to +2)": -1, "mean protection from cisplatin (shift in death) (%)": -10.2, "activity call": "inactive"}
